These are yes or no findings as the source states them, for the method shown. Some results given as binding are weak or reduced against the parent protein; the word gives no strength.
Experiments:
[1] = target: recombinant human CD9 long extracellular loop 2-human Fc fusion protein (10015-CD, R&D Systems) (human) (UniProt P21926); assay: BLI (Octet RED384), CD9 loop 2-Fc on AHC biosensors
[2] = target: recombinant human CD9 long extracellular loop 2-human Fc fusion protein (10015-CD, R&D Systems) (human) (UniProt P21926); assay: BLI (Octet RED384), CD9 loop 2-Fc on AHC biosensors, Fab-Y at 10 µg/mL

Protein sequences, listed by entry. Tags and fused reporters are not part of them. Lines headed by an entry give the natural chain unless they say otherwise; changes in a name come on top.
UniProt P21926: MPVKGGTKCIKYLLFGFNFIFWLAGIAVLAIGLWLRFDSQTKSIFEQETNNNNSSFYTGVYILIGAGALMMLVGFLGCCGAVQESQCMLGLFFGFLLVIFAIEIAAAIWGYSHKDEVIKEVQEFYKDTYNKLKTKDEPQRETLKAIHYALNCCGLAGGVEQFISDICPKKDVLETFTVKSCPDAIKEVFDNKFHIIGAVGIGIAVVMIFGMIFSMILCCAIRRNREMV

- binding [1]: binds
- binding [2]: binds
B1: anti-CD9 Fab-Y 7272 (Fab, V domains shown)
VH: QSLEESGGRLVTPGTPLTLTCTVSGFSLSSYAMGWVRQAPGKGLEWIGAIGSITATGYARWAKGRFSISKTSTTVDLKMTSPTTEDTATYFCAREIYVGSAYAFDIWGPGTLVTVSS
VL: AYDMTQTPASVEVAVGDTVTIKCQASQSISNYLAWYQQKPGQPPKLLIYLASTLASGVPSRFKGSGSGTEFTLTISDLECADAATYYCQQGYIDNVNKGFGGGTEVVVK
notes: Tested as Fab-Y: a Fab whose CH1 is joined by a peptide linker to the GCN4 peptide (clone 7P14P); also called VR7272
